The results in this text go back to US20190192524A1, “Modulators of Caspase-6” (The University of British Columbia, priority 2014, published 2019).

Protein sequences, listed by entry. Tags and fused reporters are not part of them. Lines headed by an entry give the natural chain unless they say otherwise; changes in a name come on top.
UniProt P42858: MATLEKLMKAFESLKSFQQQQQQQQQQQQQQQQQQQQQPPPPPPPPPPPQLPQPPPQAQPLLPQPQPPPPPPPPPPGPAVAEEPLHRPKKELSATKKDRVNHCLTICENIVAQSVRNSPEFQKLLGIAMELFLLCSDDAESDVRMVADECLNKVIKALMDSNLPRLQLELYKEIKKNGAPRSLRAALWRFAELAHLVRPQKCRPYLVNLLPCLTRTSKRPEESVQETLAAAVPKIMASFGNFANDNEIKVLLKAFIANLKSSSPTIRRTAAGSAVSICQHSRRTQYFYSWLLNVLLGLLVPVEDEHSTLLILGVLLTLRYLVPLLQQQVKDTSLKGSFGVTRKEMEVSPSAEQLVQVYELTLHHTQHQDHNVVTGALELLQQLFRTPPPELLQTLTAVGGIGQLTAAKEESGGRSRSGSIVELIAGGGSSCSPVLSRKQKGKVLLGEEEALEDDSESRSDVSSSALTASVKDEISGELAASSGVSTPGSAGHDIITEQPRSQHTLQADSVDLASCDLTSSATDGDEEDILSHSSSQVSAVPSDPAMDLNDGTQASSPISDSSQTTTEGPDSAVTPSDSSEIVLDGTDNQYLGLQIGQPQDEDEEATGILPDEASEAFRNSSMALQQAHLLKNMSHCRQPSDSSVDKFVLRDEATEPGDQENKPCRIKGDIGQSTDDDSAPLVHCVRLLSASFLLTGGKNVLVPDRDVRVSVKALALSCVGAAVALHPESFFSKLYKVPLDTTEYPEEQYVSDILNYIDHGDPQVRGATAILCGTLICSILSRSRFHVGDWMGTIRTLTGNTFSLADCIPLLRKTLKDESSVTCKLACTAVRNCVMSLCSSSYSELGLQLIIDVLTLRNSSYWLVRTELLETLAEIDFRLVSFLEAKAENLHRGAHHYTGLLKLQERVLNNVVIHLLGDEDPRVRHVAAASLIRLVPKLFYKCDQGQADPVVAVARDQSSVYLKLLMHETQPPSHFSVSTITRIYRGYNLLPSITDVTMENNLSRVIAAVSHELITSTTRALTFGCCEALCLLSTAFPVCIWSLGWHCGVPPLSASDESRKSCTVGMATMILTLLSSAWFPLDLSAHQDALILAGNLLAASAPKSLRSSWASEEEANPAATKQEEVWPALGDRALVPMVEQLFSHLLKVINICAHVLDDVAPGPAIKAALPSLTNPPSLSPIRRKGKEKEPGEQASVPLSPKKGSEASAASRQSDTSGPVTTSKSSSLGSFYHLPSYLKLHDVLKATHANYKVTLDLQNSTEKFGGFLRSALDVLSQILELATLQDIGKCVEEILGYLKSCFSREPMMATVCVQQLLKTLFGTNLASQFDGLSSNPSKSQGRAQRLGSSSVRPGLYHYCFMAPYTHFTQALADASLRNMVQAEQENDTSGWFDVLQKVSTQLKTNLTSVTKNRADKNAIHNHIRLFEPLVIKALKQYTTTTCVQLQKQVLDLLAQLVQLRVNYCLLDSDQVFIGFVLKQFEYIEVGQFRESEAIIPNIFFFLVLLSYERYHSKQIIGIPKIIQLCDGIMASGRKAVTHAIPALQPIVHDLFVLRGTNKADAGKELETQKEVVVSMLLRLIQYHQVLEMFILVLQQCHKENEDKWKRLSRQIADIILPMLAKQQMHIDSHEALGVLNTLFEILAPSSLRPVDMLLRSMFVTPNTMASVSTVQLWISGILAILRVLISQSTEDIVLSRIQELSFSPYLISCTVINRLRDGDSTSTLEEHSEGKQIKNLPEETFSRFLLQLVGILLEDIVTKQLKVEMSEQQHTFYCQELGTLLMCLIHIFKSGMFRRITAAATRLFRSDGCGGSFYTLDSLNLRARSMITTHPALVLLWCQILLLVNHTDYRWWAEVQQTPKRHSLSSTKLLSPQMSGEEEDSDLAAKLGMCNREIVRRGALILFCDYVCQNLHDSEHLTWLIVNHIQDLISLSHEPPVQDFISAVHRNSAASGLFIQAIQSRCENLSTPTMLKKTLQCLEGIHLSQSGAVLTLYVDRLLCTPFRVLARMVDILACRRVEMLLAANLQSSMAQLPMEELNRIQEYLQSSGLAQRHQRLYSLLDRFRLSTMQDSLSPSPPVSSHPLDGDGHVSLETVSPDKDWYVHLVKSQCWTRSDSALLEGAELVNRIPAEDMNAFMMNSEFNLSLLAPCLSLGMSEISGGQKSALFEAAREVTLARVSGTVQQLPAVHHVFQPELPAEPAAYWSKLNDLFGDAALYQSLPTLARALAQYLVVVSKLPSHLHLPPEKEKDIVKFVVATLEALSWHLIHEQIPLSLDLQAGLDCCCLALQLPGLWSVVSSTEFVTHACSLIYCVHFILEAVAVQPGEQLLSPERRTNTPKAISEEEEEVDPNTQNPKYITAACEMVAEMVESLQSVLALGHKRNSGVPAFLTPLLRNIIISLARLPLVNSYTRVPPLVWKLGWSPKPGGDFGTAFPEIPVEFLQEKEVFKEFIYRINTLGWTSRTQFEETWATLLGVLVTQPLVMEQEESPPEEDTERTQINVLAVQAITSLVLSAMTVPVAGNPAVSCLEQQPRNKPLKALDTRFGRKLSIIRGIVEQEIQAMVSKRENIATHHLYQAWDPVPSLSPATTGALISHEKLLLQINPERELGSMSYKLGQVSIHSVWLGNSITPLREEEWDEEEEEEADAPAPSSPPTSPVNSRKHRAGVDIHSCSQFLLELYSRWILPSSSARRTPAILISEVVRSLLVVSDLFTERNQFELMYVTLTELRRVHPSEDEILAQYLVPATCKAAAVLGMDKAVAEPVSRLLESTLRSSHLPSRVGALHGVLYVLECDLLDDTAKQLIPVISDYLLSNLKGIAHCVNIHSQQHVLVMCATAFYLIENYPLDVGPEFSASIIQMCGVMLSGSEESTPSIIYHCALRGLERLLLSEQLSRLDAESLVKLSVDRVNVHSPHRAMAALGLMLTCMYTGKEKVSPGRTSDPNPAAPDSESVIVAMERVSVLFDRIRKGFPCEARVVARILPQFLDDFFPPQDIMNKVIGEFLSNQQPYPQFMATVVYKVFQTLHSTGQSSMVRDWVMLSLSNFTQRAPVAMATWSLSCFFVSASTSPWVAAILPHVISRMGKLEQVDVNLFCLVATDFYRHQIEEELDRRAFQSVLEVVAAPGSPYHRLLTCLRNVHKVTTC

The target of assay [1] is 1212 amino acid HTT fragment (wt htt, amino acids 1-1212 of huntingtin, N-terminal His-tag) (human) (UniProt P42858). The assay is described as follows: co-immunoprecipitation with a caspase-6 antibody from co-transfected COS-7 cell lysates, Western blot.
Assay [2] shares this target. The experiment in a line: co-immunoprecipitation with a caspase-6 antibody from co-transfected COS-7 cell lysates, Western blot with Htt antibody 2166. For orientation: Immunoblotting shows a protein as a band on a membrane.

No constants are given. Whether binding was seen depends on the method and setting. Binding seen in cells or lysates may run through a third protein. Some entries that bind do so weakly or less than the wild type. Sequences can lack the tags named with a protein.

B1: full-length human caspase-6 (amino acids 1-293 of human caspase-6 with C-terminal DDK-tag) (enzyme)
chain: MSSASGLRRGHPAGGEENMTETDAFYKREMFDPAEKYKMDHRRRGIALIFNHERFFWHLTLPERRGTCADRDNLTRRFSDLGFEVKCFNDLKAEELLLKIHEVSTVSHADADCFVCVFLSHGEGNHIYAYDAKIEIQTLTGLFKGDKCHSLVGKPKIFIIQACRGNQHDVPVIPLDVVDNQTEKLDTNITEVDAASVYTLPAGADFLMCYSVAEGYYSHRETVNGSWYIQDLCEMLGKYGSSLEFTELLTLVNRKVSQRRVDFCKDPSAIGKKQVPCFASMLTKKLHFFPKSNTRTPLEQKLISEEDLAAMISWITRDDDDKV
Turning to B1, the binding entry in assay [1] and in assay [2] was “binds” throughout.
